PubChem BioAssay AID1159584 – Peter MacCallum Cancer Centre – 2016
Aim: 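Genes whose loss is lethal only together with E-cadherin loss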 (primary screen). Cells: human MCF10A breast epithelial cells, parental and CDH1-null. Knock-down reagent: siRNA against human genes. Measured: 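Cell viability by CellTiter-Glo ATP luminescence, each line scaled to the mean of mock wells across plates, then CDH1-null over parental ratio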. Scale: CDH1-null / parental viability ratio: higher = CDH1-null cells survive relatively better than parental; CDH1-null viability vs mock: higher = more viable CDH1-null cells.
This is a random part of about 18,000 reagents tested. Further read-outs or replicates are left out here. Reagent sequences are not shown. Not stated in the record: the amount of reagent, the time to read-out.

gene knocked down | CDH1-null / parental viability ratio | CDH1-null viability vs mock (fraction of mock)
ZNF677 | 0.84 | 0.84
OR52K1 | 1.06 | 0.92
CFC1B | 0.85 | 0.68
KLHDC4 | 0.92 | 1.08
GAK | 1.09 | 1.02
ELOVL4 | 0.67 | 0.47
GJB2 | 0.74 | 0.46
PCDHGA9 | 1.26 | 0.86
PGC | 1.14 | 0.73
GLDN | 0.87 | 0.7
GIGYF2 | 0.76 | 0.64
RPL18A | 1.27 | 0.38
ZNF430 | 0.9 | 0.82
RPL28 | 1.03 | 0.8
KIAA1191 | 1.13 | 0.7
HEATR3 | 0.97 | 0.64
MAS1 | 0.86 | 0.98
HCRTR1 | 0.78 | 0.82
RCSD1 | 0.86 | 1.04
GBE1 | 1.21 | 1.29
ACACA | 1.22 | 1.12
RAB13 | 0.94 | 0.9
RIT2 | 1.1 | 0.99
RC3H2 | 1.02 | 0.99
PSD | 0.91 | 0.78
TCEANC2 | 0.74 | 0.55
SKIC3 | 1.42 | 0.74
CLCN4 | 1.13 | 0.88
